Source: patent US20020182232A9, “Cosmetic composition comprising at least one ingredient chosen from compounds of formula (I) and salts thereof, use thereof as colouring agent, and novel compounds of formulae (IIa), (IIIa), (IVa), (Va), and (VIa), and salts thereof” (priority 2000, published 2002)

Assay: Colouring strength: colorimetric L, a, b and C values (Minolta CR-300)
Format: physicochemical
Conditions: colorimeter; for a (red-green axis) / b (yellow-blue axis) / L (luminance): L a b system; for L (luminance): pure compacted compound or TiO2/petroleum jelly mixture not specified

Compound | c (saturation of the compound) | a (red-green axis) | b (yellow-blue axis) | L (luminance)
COc1ccc2ccc3oc4c(c3c2c1)C(=O)c1ccccc1C4=O [2-methoxydinaphtho-(2,1-b:2′,3′-d)furan-8,13-dione] | 78.8 | 53.0 | 58.4 | 54.5
O=C1c2ccccc2C(=O)c2c1oc1c2ccc2ccc(O)cc21 [2-Hydroxy-dinaphtho(1,2-b:2′,3′-d)furan-7,12-dione] | 62.9 | 43.9 | 45.0 | 47.4
O=C(O)c1nn(-c2ccc(S(=O)(=O)O)cc2)c(O)c1N=Nc1ccc(S(=O)(=O)O)cc1 [FD&C Yellow No. 5, reference compound] | 100 | 16.1 | 98.8 | 83.5
O=C1c2ccccc2C(=O)c2c1oc1c2ccc2ccccc21 [Dinaphtho(1,2-b:2′,3′-d)furan-7,12-dione, dinaphtho(1,2-b:2′,3′-d)furan-7,12-dione] | 108 | 0.19 | 108 | 88.5
O=S(=O)([O-])c1ccc(N=Nc2c(O)ccc3cc(S(=O)(=O)[O-])ccc23)cc1.[Na+].[Na+] [FD&C Yellow No. 6, reference compound] | 89.5 | 51.4 | 73.3 | 58.2
CCCCCCOc1cc2c3c(oc2c2ccccc12)C(=O)c1ccccc1C3=O [5-hexyloxydinaphtho-(1,2-b:2′,3′-d)furan-7,12-dione] | 72.0 | 50.8 | 51.0 | 48.9
COc1ccc2c(ccc3oc4c(c32)C(=O)c2ccccc2C4=O)c1 [3-methoxydinaphtho-(2,1-b:2′,3′-d)furan-8,13-dione] | 92.4 | 34.2 | 85.8 | 70.7
O=C1c2ccccc2C(=O)c2c1oc1ccc3cc(Br)ccc3c21 [3-bromodinaphtho(2,1-b:-2′,3′-d)furan-8,13-dione] | 99.4 | 7.6 | 99.1 | 82.5
O=C1c2ccccc2C(=O)c2c1oc1cc(O)c3ccccc3c21 [5-hydroxydinaphtho(2,1-b:2′,3′-d)furan-8,13-dione] | 19.4 | 16.9 | 9.5 | 22.4
O=C1c2ccccc2C(=O)c2c1oc1c2cc(Cl)c2ccccc21 [5-chlorodinaphtho-(1,2-b:2′,3′-d)furan-7,12-dione] | 103 | −2.7 | 103 | 85.7
CCOc1cc2c3c(oc2c2ccccc12)C(=O)c1ccccc1C3=O [5-ethoxydinaphtho(1,2-b:2′,3′-d)furan-7,12-dione] | 52.8 | 44.4 | 28.6 | 35.0
O=C1c2ccccc2C(=O)c2c1oc1ccc3ccccc3c21 [Dinaphtho(2,1-b:2′,3′-d)furan-8,13-dione, dinaphtho(2,1-b:2′,3′-d)furan-8,13-dione] | 88.7 | 10.7 | 88.0 | 75.6
CC(C)Oc1cc2c3c(oc2c2ccccc12)C(=O)c1ccccc1C3=O [5-isopropyloxydinaphtho-(1,2-b:2′,3′-d)furan-7,12-dione] | 72.4 | 54.9 | 47.3 | 44.9
